# According to the supplement of paper PMC10849652:
# The chains behind the UniProt entries cited, without tags or fusion partners. Where a name states a change or a piece, a line headed by the entry shows the natural chain unless it says otherwise.
# UniProt Q9NPR9: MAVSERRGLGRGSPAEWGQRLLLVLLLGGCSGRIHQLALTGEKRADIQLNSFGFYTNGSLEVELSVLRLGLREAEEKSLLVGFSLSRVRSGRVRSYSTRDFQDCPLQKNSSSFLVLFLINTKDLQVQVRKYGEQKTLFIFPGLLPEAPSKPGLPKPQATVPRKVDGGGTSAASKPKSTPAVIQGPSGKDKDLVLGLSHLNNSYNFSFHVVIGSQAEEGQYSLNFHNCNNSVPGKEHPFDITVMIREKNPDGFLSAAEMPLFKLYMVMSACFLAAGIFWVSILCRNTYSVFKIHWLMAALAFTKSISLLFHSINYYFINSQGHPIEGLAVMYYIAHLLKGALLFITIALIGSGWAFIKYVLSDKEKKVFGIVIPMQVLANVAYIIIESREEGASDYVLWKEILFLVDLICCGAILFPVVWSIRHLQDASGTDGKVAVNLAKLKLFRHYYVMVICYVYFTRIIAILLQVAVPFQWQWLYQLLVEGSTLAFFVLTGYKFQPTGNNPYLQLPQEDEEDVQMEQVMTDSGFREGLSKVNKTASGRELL
# UniProt Q9H4G4: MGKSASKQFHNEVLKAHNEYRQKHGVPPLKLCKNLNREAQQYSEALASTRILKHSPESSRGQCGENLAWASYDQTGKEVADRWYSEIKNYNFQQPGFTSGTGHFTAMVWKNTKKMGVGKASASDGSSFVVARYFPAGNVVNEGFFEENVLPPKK
# UniProt Q5T7V8: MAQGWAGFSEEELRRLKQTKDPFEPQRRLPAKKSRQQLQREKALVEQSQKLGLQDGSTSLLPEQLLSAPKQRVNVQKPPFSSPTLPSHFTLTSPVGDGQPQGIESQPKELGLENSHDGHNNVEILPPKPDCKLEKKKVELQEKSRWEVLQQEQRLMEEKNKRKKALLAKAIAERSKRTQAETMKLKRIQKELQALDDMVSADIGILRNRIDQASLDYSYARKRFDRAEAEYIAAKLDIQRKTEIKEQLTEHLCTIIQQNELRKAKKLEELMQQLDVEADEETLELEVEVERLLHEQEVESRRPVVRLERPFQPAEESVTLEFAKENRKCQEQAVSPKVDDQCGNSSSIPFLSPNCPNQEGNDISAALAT
# UniProt P49448: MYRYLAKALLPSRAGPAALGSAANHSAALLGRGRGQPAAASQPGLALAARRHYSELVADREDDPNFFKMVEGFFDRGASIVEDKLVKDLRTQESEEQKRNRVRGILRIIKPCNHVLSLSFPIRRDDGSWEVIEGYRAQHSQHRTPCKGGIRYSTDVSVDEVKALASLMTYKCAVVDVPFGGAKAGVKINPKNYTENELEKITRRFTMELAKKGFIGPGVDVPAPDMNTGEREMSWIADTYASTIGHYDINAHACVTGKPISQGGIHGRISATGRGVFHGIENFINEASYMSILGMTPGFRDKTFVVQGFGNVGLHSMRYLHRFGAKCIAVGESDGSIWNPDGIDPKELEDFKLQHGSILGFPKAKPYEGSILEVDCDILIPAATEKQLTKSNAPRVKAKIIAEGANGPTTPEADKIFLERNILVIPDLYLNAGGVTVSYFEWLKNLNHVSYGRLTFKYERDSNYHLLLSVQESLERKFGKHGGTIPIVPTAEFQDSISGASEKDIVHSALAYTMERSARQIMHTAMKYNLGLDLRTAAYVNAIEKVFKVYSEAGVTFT
# UniProt P13224: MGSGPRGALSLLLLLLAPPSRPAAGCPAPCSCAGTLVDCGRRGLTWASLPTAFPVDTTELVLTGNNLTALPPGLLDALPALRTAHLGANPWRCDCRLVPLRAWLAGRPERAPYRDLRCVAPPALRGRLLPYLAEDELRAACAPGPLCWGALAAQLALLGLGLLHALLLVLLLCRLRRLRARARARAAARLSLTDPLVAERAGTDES
# UniProt P16278: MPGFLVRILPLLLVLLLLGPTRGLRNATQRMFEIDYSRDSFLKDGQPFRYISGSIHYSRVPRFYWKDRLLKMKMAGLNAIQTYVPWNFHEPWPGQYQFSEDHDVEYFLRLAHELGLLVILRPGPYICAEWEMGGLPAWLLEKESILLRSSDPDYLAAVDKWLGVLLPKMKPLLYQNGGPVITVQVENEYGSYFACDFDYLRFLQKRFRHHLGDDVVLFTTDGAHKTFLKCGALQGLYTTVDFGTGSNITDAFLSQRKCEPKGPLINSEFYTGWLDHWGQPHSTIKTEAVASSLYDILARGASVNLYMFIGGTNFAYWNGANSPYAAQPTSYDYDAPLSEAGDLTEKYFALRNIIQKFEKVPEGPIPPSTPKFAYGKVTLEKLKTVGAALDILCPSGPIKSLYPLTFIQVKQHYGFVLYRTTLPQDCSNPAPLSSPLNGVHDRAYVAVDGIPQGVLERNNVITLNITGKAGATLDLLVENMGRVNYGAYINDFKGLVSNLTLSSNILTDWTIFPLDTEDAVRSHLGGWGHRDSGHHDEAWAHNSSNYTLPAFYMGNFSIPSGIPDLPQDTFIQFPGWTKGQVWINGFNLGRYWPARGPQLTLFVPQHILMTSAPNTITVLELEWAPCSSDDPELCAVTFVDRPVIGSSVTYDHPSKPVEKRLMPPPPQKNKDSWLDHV
# UniProt Q14789: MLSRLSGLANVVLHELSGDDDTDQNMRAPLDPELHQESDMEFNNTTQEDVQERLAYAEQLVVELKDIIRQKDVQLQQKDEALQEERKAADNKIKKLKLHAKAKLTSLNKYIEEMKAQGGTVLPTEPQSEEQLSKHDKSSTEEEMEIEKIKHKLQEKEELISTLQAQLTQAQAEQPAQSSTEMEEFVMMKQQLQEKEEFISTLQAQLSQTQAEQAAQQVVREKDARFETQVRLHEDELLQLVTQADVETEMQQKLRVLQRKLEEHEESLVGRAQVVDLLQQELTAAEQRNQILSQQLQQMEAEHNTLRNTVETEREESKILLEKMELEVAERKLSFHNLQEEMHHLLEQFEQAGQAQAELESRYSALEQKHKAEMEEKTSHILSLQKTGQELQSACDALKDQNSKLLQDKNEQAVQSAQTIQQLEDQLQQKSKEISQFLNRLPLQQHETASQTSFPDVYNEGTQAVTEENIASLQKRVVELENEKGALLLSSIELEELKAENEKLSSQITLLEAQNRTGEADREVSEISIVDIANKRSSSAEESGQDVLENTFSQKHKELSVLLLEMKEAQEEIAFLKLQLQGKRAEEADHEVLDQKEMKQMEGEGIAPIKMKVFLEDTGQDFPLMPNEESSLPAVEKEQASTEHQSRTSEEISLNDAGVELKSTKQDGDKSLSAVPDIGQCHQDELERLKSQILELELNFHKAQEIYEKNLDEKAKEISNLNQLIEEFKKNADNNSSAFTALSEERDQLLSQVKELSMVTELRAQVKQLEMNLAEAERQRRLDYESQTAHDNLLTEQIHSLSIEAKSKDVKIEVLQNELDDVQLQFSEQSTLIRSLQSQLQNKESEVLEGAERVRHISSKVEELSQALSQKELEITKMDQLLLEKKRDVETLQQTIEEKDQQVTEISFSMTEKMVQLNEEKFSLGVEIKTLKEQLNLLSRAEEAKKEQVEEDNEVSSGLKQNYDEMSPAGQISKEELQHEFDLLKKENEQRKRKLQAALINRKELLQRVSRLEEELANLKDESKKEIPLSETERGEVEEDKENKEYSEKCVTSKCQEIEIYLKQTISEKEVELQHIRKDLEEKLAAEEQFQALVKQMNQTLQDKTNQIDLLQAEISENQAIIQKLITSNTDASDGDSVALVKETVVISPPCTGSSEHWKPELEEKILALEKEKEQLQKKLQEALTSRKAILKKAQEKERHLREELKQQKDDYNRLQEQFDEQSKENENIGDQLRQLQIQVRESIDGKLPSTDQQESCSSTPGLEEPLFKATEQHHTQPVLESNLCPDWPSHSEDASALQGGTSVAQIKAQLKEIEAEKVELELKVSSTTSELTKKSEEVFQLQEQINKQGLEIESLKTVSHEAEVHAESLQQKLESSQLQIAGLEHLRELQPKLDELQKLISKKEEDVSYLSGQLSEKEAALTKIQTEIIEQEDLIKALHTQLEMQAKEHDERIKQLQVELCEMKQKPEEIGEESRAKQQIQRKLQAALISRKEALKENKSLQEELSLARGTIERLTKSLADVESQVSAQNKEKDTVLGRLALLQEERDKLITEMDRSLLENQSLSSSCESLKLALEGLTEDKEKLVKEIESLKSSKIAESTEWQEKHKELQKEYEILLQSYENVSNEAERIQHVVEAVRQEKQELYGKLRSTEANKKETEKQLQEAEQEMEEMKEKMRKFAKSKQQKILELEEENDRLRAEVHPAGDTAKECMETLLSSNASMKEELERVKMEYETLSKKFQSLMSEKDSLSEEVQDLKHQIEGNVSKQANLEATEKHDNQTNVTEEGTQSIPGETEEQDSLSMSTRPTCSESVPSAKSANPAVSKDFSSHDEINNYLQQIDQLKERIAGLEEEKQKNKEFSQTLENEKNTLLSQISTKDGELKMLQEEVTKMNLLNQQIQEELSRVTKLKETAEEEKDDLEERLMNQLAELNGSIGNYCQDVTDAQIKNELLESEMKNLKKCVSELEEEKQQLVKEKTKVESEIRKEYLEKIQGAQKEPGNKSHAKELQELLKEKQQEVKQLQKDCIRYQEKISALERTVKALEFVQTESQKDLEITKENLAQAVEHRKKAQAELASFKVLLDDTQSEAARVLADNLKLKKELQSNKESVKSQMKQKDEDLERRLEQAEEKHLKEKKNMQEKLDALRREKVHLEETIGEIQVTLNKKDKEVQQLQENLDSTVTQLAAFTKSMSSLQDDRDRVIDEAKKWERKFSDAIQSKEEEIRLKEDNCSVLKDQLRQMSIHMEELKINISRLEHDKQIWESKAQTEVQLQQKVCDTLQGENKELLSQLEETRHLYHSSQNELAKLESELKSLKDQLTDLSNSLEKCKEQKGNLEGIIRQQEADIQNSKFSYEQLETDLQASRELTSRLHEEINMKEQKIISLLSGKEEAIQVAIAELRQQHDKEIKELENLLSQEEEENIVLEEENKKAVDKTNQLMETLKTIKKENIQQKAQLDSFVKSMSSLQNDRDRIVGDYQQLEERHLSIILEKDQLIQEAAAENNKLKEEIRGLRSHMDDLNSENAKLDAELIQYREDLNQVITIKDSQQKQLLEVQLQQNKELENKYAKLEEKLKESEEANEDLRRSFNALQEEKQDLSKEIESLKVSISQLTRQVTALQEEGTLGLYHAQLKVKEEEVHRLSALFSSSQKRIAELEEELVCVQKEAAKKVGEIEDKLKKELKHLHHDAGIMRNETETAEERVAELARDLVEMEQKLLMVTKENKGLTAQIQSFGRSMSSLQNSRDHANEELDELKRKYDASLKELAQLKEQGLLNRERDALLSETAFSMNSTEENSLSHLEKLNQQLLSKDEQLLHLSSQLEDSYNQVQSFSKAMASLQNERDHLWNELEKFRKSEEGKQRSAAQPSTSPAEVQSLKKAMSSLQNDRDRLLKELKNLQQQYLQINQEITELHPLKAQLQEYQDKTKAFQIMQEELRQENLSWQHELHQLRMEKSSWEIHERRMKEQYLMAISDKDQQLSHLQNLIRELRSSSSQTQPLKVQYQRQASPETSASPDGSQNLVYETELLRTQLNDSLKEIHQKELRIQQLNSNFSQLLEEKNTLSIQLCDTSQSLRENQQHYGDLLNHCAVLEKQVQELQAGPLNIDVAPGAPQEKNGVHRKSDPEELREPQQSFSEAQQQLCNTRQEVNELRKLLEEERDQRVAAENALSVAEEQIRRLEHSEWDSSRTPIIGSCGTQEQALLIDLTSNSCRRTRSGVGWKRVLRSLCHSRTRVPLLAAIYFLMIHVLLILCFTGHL
# UniProt Q9HCL2: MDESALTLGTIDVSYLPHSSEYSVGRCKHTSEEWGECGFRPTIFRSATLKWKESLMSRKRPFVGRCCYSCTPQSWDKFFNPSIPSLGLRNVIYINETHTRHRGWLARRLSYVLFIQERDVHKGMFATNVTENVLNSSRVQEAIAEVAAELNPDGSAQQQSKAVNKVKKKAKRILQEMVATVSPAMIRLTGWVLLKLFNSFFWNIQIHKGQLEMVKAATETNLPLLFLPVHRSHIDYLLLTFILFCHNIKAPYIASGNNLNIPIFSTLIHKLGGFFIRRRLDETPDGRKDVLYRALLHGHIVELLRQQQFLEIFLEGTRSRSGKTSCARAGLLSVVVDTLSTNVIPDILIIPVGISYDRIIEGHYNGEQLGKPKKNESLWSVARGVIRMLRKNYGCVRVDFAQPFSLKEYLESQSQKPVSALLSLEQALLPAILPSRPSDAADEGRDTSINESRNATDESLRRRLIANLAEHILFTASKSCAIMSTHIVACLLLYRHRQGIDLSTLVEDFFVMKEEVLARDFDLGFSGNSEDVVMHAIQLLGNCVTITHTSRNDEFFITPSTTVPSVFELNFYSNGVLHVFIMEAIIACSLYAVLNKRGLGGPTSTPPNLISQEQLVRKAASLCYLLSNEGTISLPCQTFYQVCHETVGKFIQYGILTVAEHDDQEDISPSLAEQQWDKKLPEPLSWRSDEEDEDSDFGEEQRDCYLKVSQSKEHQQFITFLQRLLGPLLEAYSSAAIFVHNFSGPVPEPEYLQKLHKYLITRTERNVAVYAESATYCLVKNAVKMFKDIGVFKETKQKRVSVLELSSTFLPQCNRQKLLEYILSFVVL
# The list shows a part of the results.
# Columns and labels:
# Assay in all cases: log2 fold change, soluble protein after heating vs DMSO (PISA); higher = thermal stabilisation; K562 cells, 10 uM, 30 min; active = over 0.2 and 3.5 SD of the protein, either way, in both replicates (recomputed)
# [1] = compound: CC1=C(C=C(C=C1)NC(=O)C2=CC(=CC=C2)C(C)(C)C#N)NC3=CC4=C(C=C3)N=CN(C4=O)C
# How it was run: (§1)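 K562 cells at 2×10^6 cells/mL were treated for 30 min with 10 μM compound, and aliquots were heated for 3 min over 48°C-58°C before pooling. Extraction used PBS with 0.5% NP-40 at 4°C, and soluble protein was the supernatant after 21,000xg for 90 min, measured by TMTpro 16plex LC-MS/MS with channel sums equalised. Thermal stability values, relative to control samples and from duplicates, are log2 fold changes.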
# [2] = compound: CC1=C(C=C(C=C1)NC(=O)C2=CC(=CC=C2)N(C)C)NC(=O)C3=CC=C(C=C3)O
# How it was run: as §1
# [3] = compound: CC1=CC=C(C=C1)SC2=C3C=C(SC3=CN=C2)C(=O)N
# How it was run: as §1
# Nexturastat A = compound: CCCCN(Cc1ccc(C(=O)NO)cc1)C(=O)Nc1ccccc1 [Nexturastat A]
# How it was run: as §1
# vemurafenib = compound: CCCS(=O)(=O)Nc1ccc(F)c(C(=O)c2c[nH]c3ncc(-c4ccc(Cl)cc4)cc23)c1F [vemurafenib]
# How it was run: as §1
# [4] = compound: CCCS(=O)(=O)Nc1ccc(F)c(C(=O)c2c[nH]c3ncc(Cl)cc23)c1F
# How it was run: as §1
# [5] = compound: CCCc1cc(C)[nH]c(=O)c1CNC(=O)c1cc(-c2ccnc(N3CCN(C)CC3)c2)cc2c1cnn2C(C)C
# How it was run: as §1
# givinostat = compound: CCN(CC)Cc1ccc2cc(COC(=O)Nc3ccc(C(=O)NO)cc3)ccc2c1 [givinostat]
# How it was run: as §1
# barasertib = compound: CCN(CCCOc1ccc2c(Nc3cc(CC(=O)Nc4cccc(F)c4)[nH]n3)ncnc2c1)CCOP(=O)(O)O [barasertib]
# How it was run: as §1
# [6] = compound: CC[C@@H]1C(=O)N(C)c2cnc(Nc3ccc(C(=O)NC4CCN(C)CC4)cc3OC)nc2N1C1CCCC1
# How it was run: as §1
# volasertib = compound: CC[C@@H]1C(=O)N(C)c2cnc(Nc3ccc(C(=O)N[C@H]4CC[C@H](N5CCN(CC6CC6)CC5)CC4)cc3OC)nc2N1C(C)C [volasertib]
# How it was run: as §1
# [7] = compound: CC[C@H](C)N1C=C(C2=C(C=C(C=C21)C3=CN=C(C=C3)N4CCNCC4)C(=O)NCC5=C(C=C(NC5=O)C)C)C
# How it was run: as §1
# epoxomicin = compound: CC[C@H](C)[C@@H](C(=O)N[C@@H]([C@@H](C)O)C(=O)N[C@@H](CC(C)C)C(=O)[C@]1(CO1)C)NC(=O)[C@H]([C@@H](C)CC)N(C)C(=O)C [epoxomicin]
# How it was run: as §1
# [8] = compound: CCn1c(C(=O)N(C2CC2)C2CC2)cc2c3c(ncn3C)c(Nc3cc(C)n(C)n3)nc21
# How it was run: as §1
# [9] = compound: CN(C)CC(=O)Nc1ccc2[nH]c(=O)c3ccccc3c2c1
# How it was run: as §1
# rosiglitazone = compound: CN(CCOC1=CC=C(C=C1)C[C@H]2C(=O)NC(=O)S2)C3=CC=CC=N3 (racemic) [rosiglitazone]
# How it was run: as §1
# [10] = compound: CN1C2=C(C3=C1C(=O)N(N=C3)CC4=CC(=CC=C4)N)SC(=C2)S(=O)C
# How it was run: as §1
# [11] = compound: CC1=NC(=CC=C1)C2=C(N=C(N2)C(C)(C)C)C3=CC4=NC=CN=C4C=C3
# How it was run: as §1
# [12] = compound: CCn1cc(-c2ccnc3[nH]c(-c4cccc(CN(C)C)c4)cc23)c(-c2ccc(NC(=O)N(C)C)cc2)n1
# How it was run: as §1
# [13] = compound: CN1CCC(CNc2ccc3ncc(-c4cccc(OC(F)(F)F)c4)n3n2)CC1
# How it was run: as §1
Target,log2 fold change [1],log2 fold change [2],log2 fold change [3],log2 fold change (Nexturastat A),log2 fold change (vemurafenib),log2 fold change [4],log2 fold change [5],log2 fold change (givinostat),log2 fold change (barasertib),log2 fold change [6],log2 fold change (volasertib),log2 fold change [7],log2 fold change (epoxomicin),log2 fold change [8],log2 fold change [9],log2 fold change (rosiglitazone),log2 fold change [10],log2 fold change [11],log2 fold change [12],log2 fold change [13]
GPR108 (UniProt Q9NPR9),inactive: -0.026,inactive: -0.011,inactive: 0.055,inactive: 0.083,inactive: -0.056,inactive: -0.041,inactive: -0.113,inactive: 0.028,inactive: -0.016,inactive: 0.045,inactive: 0.085,inactive: 0.055,inactive: -0.017,inactive: 0.01,inactive: -0.069,inactive: -0.001,inactive: -0.112,,,
GLIPR2 (UniProt Q9H4G4),inactive: 0.156,inactive: -0.152,inactive: -0.054,inactive: 0.062,inactive: 0.092,inactive: -0.014,inactive: 0.028,inactive: 0.009,inactive: 0,inactive: -0.047,inactive: 0.163,,inactive: -0.088,,inactive: -0.117,,inactive: -0.084,inactive: -0.032,inactive: -0.032,inactive: -0.239
GORAB (UniProt Q5T7V8),inactive: -0.006,inactive: -0.029,inactive: 0.023,,inactive: 0.07,inactive: 0.115,,inactive: 0.096,inactive: 0.2,inactive: -0.12,inactive: -0.178,inactive: 0.069,,inactive: 0.022,inactive: 0.157,inactive: 0.125,inactive: -0.384,,,
GLUD2 (UniProt P49448),inactive: 0.104,inactive: 0.006,inactive: -0.062,inactive: -0.045,inactive: 0.017,inactive: 0.006,inactive: 0.238,inactive: -0.107,inactive: 0.015,inactive: 0.13,inactive: 0.252,inactive: 0.068,inactive: -0.07,,inactive: 0.021,,inactive: -0.022,inactive: -0.015,inactive: -0.219,inactive: 0.071
GP1BB isoform 2 (UniProt P13224),inactive: -0.014,,inactive: -0.024,inactive: -0.029,inactive: 0.018,inactive: -0.034,inactive: 0.017,inactive: 0.042,inactive: 0,inactive: -0.111,inactive: -0.075,inactive: -0.034,inactive: -0.042,inactive: 0.021,inactive: -0.007,inactive: 0.035,inactive: 0.01,inactive: 0.013,inactive: -0.007,inactive: -0.164
GLB1 (UniProt P16278),inactive: -0.051,inactive: -0.026,inactive: -0.033,inactive: 0.086,inactive: -0.017,inactive: -0.007,inactive: 0.003,inactive: 0.002,inactive: -0.027,active: -0.707,active: -1.11,inactive: 0.007,inactive: -0.01,,inactive: 0.002,,inactive: 0.037,inactive: -0.038,inactive: 0.057,active: -0.751
GPCPD1 (UniProt Q9NPB8),inactive: 0.039,inactive: 0.076,inactive: 0.054,inactive: 0.288,,inactive: 0.06,inactive: 0.05,,,inactive: -0.049,inactive: -0.164,,inactive: 0.159,,,,inactive: 0.05,,inactive: -0.062,inactive: -0.077
GOLGB1 isoform 2 (UniProt Q14789),inactive: 0.033,inactive: -0.057,inactive: -0.09,inactive: 0.177,inactive: -0.085,inactive: -0.07,inactive: -0.047,inactive: 0,inactive: -0.07,inactive: 0.009,inactive: -0.17,inactive: -0.052,inactive: -0.185,,inactive: -0.061,,inactive: 0.148,inactive: -0.033,inactive: 0.05,inactive: -0.009
GPAM (UniProt Q9HCL2),inactive: -0.113,inactive: -0.015,inactive: -0.069,inactive: -0.08,,inactive: 0.041,,inactive: 0.035,,,inactive: -0.006,inactive: 0.043,inactive: -0.021,inactive: -0.142,,,,inactive: -0.259,inactive: 0.23,inactive: -0.208
